The record followed here is PubChem BioAssay AID2685 (National Center for Advancing Translational Sciences (NCATS), 2010).

This is one part of the list. The main result of the screen is listed elsewhere. These columns were measured beside it and carry no call. Compounds called inactive in the main read-out are mostly missing here. Words in brackets tell the shape of the fitted curve; partial curves, single points and poor fits give uncertain potencies.

This test can be described thus: qHTS Assay for Lipid Storage Modulators in Drosophila S3 Cells.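 As to cell number change: cells counted by Cell Tracker Red CMTPX staining in the red channel.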 To be noted: BODIPY lipid droplet fluorescence, 18-24 h; for cell number change: measured here: cell count max response, cells fed with added oleic acid. The essentials:
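Laser-scanning cytometry quantifies lipid droplet accumulation (500–530 nm total intensity; droplet/cell object ratio) in oleic acid-fed (400 uM added) Drosophila S3 cells treated with a concentration series. 20 uM Triacsin C defined 100% inhibition.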
(In general: Quantitative high-throughput screening tests each substance at several concentrations.)

Setting [1] is: measured here: lipid fluorescence (Fed channel) AC50, cells fed with added oleic acid.
The mark [2] stands for this setting: measured here: cell number channel AC50, cells fed with added oleic acid.

As a reminder, the AC50 is the midpoint of the concentration-response curve, whichever way the signal moves. The low end stands for activity at low concentration, the high end for activity only at high concentration.

Take `Cc1nc(C(=O)Nc2ccc(Cl)cc2)nn1-c1ccc([N+](=O)[O-])cc1`: under setting [1], the half-maximal activity concentration (AC50) was 0.651 µM [rising, single point].

Regarding `COCC(=O)Nc1ccc(S(=O)(=O)Nc2cc(C)nc(C)n2)cc1`, the AC50 under setting [1] was 6.51 µM [falling, single point].

As to `COc1cc(OC)cc(-c2c(-c3ccc(F)cc3)c3cc(-c4cccc5[nH]ccc45)ccc3n2C)c1`, the cell number change came to 13.9%. For the same compound, under setting [1], the AC50 was 1.03 µM [rising, full curve].

Consider `COc1ccc(OC)c(NC(=O)C(=S)NC2CCCCC2)c1`, for which the cell number change amounted to 38.6%.

For the compound `COCC(=O)N(Cc1cc2cc(OC)ccc2[nH]c1=O)c1ccccc1`, the half-maximal activity concentration (AC50) under setting [2] is 3.26 µM [rising, single point] and the AC50 under setting [1] was 4.11 µM [rising, single point].

Consider `Cc1ccccc1C(=O)Nc1ccc(N2CCN(C(=O)c3ccco3)CC2)cc1`, for which the cell number change is 18.9%. The half-maximal activity concentration (AC50) under setting [2] is 5.17 µM [rising, partial curve]. Moreover, the AC50 under setting [1] was 29.1 µM [rising, single point].

In the case of `COc1cc(OC)cc(-c2oc3cccnc3c2C#CCCO)c1`, the cell number change is -5.5%.

Consider `O=C(NNC(=O)c1ccc(Cn2cccn2)o1)NC12CC3CC(CC(C3)C1)C2`, for which the cell number change is -16.7%.

As for `COc1cc(/C=C2/C(=O)N(c3ccc(C)c(C)c3)N=C2C)cc([N+](=O)[O-])c1O`, the cell number change was found to be 5.84%. Under setting [1], the concentration at half-maximal activity (AC50) is 2.31 µM [rising, partial curve].

As to `Cn1c(SCC(=O)NCC2CCCO2)nnc1-c1ccc(Cl)cc1` (stereo not given), the cell number change came to 5.63%. Besides, the AC50 under setting [2] is 0.517 µM [falling, single point].

As for `C1=CC2c3ccccc3NC(c3ccncc3)C2C1` (stereo not given), the cell number change was -7.39%.

Take `Cc1cc(NC(=O)CSc2nnc(-c3ccc4c(c3)OCCO4)o2)no1`: the cell number change stood at 1.43%. Further, the half-maximal activity concentration (AC50) under setting [1] is 0.231 µM [falling, full curve, poor fit].

Regarding `Cc1nc2ncccn2c1-c1csc(Nc2ccc(N(C)C)cc2)n1`, the cell number change is -13.7%. Under setting [2], the concentration at half-maximal activity (AC50) is 1.64 µM [falling, partial curve, poor fit].

As for `Cc1c(NC(=O)CSc2ccc(Cl)cc2)cccc1-c1nc2ncccc2o1`, the cell number change was found to be 127%. Further, the AC50 under setting [1] was 29.1 µM [rising, partial curve, poor fit].

On to `Cc1ccc(Cl)cc1NC(=O)COC(=O)C1CCCCC1`, for which the cell number change is -0.0213%.

As for `C/C(=N/OC(=O)c1ccc(C(F)(F)F)cc1)c1oc(C)nc1C`, the cell number change is -7.24%. Further, under setting [1], the concentration at half-maximal activity (AC50) was 0.291 µM [falling, full curve, poor fit].

Turning to `CC1=C(C)CC(C(=O)N2CCN(Cc3ccccc3)CC2)C(C(=O)O)C1` (stereo not given), the cell number change was -3.9%. Further, the AC50 under setting [1] is 6.51 µM [rising, single point].

As for `CSc1ccccc1NC(=O)CN(C)CC(=O)Nc1ccc(Cl)cc1F`, the cell number change stood at 15.5%. Besides, the AC50 under setting [1] was 9.2 µM [rising, partial curve].
